Data as given in PubChem BioAssay AID1259415 (National Center for Advancing Translational Sciences (NCATS), 2018).
Screen size: about 410,000 compounds; about 18,000 (4.4%) were called active. Inconclusive means that the source gave no clear call. Such entries were picked first, then a sample of the others. No stated cut-off is given here; in the data, active means activity change below about -60%; inconclusive means no clear call, values can overlap the other calls; inactive means above about -39%.

experiment: qHTS Assay for inhibitors of the human cytomegalovirus (HCMV); settings: HFF cells, HCMV-luciferase reporter, 72 h; at 57.5 µM; stronger effect = lower value
Procedure, shortened: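 Luciferase read-out from HCMV-luciferase-infected HFFs (MOI 1 PFU/cell) 72 h post infection at 37C; compounds added after 16 h cell attachment; activity normalized between buffer-only basal and Salinomycin (10uM) inhibitor controls.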
On the % scale 0 is the no-effect control and ±100 the full control effect.

Compound	activity change, negative = inhibition
CN(Cc1ccc(F)cc1)C(=O)c1cc(COc2ccc(-n3cncn3)cc2)on1	inconclusive: -53.1%
COc1ccc(S(=O)(=O)N2CCCCC2c2cc(C(=O)N3CCOCC3)no2)cc1 (stereo unspecified)	inactive: -0.192%
O=C(Nc1ccc(Br)cc1)C1CC(c2c(F)cccc2Cl)=NO1 (stereo unspecified)	inconclusive: -43.3%
O=C(C1CCCN(S(=O)(=O)c2ccc(F)cc2)C1)N(Cc1cccs1)C1CC1 (stereo unspecified)	inconclusive: -52.8%
O=C(CCl)NN1C(=O)NC(c2ccccc2)(c2ccccc2)C1=O	active: -87.6%
CCn1c(C)nc2cc(C(=O)NNC(=O)[C@@H](NC(=O)c3cc(OC)cc(OC)c3)C(C)C)ccc21	inconclusive: -45.5%
COCOc1ccc(C=O)cc1OCOC	inactive: 25%
CCSc1nnc([C@H](Cc2c[nH]c3ccccc23)NC(=O)OC(C)(C)C)o1	inconclusive: -47.7%
COc1ccc(OC)c(NC(=O)c2ccc(NS(=O)(=O)c3c(C)noc3C)cc2)c1	inconclusive: -54.2%
CCCSc1nnc(-c2cnn(-c3ccccc3)c2-n2cccc2)n1C	inconclusive: -44.6%
COC(=O)C1=CN(CCCN2CCCC2=O)C=C(C(=O)OC)C1c1ccccc1C(F)(F)F	active: -65%
COCc1nnc(NC(=O)c2ccc(S(=O)(=O)N(C)C3CCCCC3)cc2)o1	inconclusive: -46.3%
COc1ccc(NC(=S)N2CCN(C/C=C/c3ccccc3)CC2)cc1	active: -64.6%
COc1ccc(C(=O)NCC(=O)OCC(=O)N2CC(C)OC(C)C2)cc1OC (stereo unspecified)	inconclusive: -43.2%
COc1ccc(OC)c(-n2nnnc2SCC(=O)Nc2ccccc2N2CCOCC2)c1	inconclusive: -45.4%
Cc1ccc(OCC(=O)Nc2ccc(C(=O)O)cc2NC(=O)COc2ccc(C)c(C)c2)cc1C	active: -98.3%
CC(=O)NC(c1ccco1)c1cc(Cl)c2cccnc2c1O (stereo unspecified)	active: -89.3%
Cn1c(=O)oc2cc(S(=O)(=O)N3CCCC(C(=O)NCCc4ccc(Cl)cc4)C3)ccc21 (stereo unspecified)	inactive: -19.2%
CN(C)S(=O)(=O)c1cccc(NC(=O)CC23CC4CC(CC(C4)C2)C3)c1	inactive: -16.1%
O=C(c1ccc(S(=O)(=O)N2CCCC2)cc1)N1CCC(CN2C(=O)c3cccc4cccc(c34)C2=O)CC1	inconclusive: -52.2%
CC(=O)Nc1cccc(-c2cc(NC(C)=O)c3ncc(-c4cccc(C(F)(F)F)c4)n3c2)c1	inconclusive: -50.1%
CCOc1ccc(Br)cc1S(=O)(=O)N1CCCC1	inconclusive: -46.3%
Cc1cc(CSc2ccccc2)ccc1NC(=O)COc1ccccc1C	inconclusive: -55.7%
CCOc1ccc(C(=O)CCC(=O)Nc2cc(C)ccn2)cc1	inactive: -8.63%
C=CC(=O)N1C/C(=C/c2ccc(F)cc2)C(=O)/C(=C\c2ccc(F)cc2)C1	active: -100%
Cc1cc(Cl)ccc1OCC(=O)Nc1c(Cl)ccc2nsnc12	inconclusive: -40.1%

Of the compounds above, these have a CF3 group:
Compound	activity change, negative = inhibition
COC(=O)C1=CN(CCCN2CCCC2=O)C=C(C(=O)OC)C1c1ccccc1C(F)(F)F	active: -65%
CC(=O)Nc1cccc(-c2cc(NC(C)=O)c3ncc(-c4cccc(C(F)(F)F)c4)n3c2)c1	inconclusive: -50.1%

Further compounds:

Compound	activity change, negative = inhibition
COc1ccc(C2Nc3ccccc3C(=O)N2Cc2ccccc2)cc1Cn1nnc2ccccc21 (stereo unspecified)	inconclusive: -53.5%
CC(C)(CNC(=O)c1ccc([N+](=O)[O-])c(Cl)c1)CNC(=O)c1ccc([N+](=O)[O-])c(Cl)c1	active: -96.8%
CCNC(=O)CSC1=N/C(=C\c2ccc(O)c(OCC)c2)C(=O)N1c1ccc(OC(F)F)cc1	active: -70.5%
CC(C)n1c(=S)[nH]c2cc(Cl)ccc21	active: -72%
O=C1NC(=O)N(Cc2ccco2)C(=O)/C1=C/C=C/c1ccco1	inconclusive: -52.2%
COc1cc2c(cc1OC)C1=C(C#N)COCN1CC2	inconclusive: -57.6%
CCCCCc1c(-c2cccc(F)c2)ncn1CCc1ccccc1OC	inconclusive: -58.9%
Cc1nn(C(=O)c2cccs2)c(C)c1CN1C(=O)c2ccccc2C1=O	inconclusive: -45%
COc1ccc(NC2CCCN(Cc3cccc4cnccc34)C2)cc1 (stereo unspecified)	inconclusive: -47.5%
CCSc1n[nH]c(=O)n1C	inactive: 30.3%
CCOC(=O)N1CCC(Nc2c(NCCN3CCN(c4cccc(Cl)c4)CC3)c(=O)c2=O)CC1	inconclusive: -56.9%
O=C(O)[C@@H]1CCCN1S(=O)(=O)c1cccc(S(=O)(=O)N2CCC[C@H]2C(=O)O)c1	inconclusive: -57.8%
C=CCn1c(O)c(N=NC(=S)Nc2cccc(OC)c2)c2ccccc21	active: -75.9%
CC/C=C/CC(=O)N[C@@H](c1ccccc1)[C@@H](O)C(=O)O[C@H]1C[C@@]2(O)[C@@H](OC(=O)c3ccccc3)C3[C@](C)(C(=O)[C@H](OC(C)=O)C(=C1C)C2(C)C)[C@@H](O)C[C@H]1OC[C@@]31OC(C)=O (stereo partly specified)	active: -91%
O=c1c2ccccc2nc(SCc2ccccc2F)n1C1CCCC1	inactive: -24.8%
COc1ccc(CC(NC(C)=O)C(=O)NC2CCN(C(=O)c3ccc(Cl)cc3)CC2)cc1 (stereo unspecified)	inconclusive: -55.2%
Cc1cccc(NC(=O)CCN2CCN(c3ccccc3F)CC2)c1	inactive: 23%
O=C(Nc1cccc(S(=O)(=O)NC2=NCCCCC2)c1)c1cc(-c2ccccc2)nc2ccccc12	inactive: -10.4%
C[C@H](c1ccccc1)N1C[C@@H](COCc2ccccc2)Oc2cc(N3CCC[C@H]3CO)ccc2S1(=O)=O	inconclusive: -42.7%
O=C(Nc1ncccn1)c1cc(-c2cccc(Br)c2)nc2ccccc12	inconclusive: -58.7%
CC(C(=O)NC1C=CS(=O)(=O)C1)N1C(=O)/C(=C\c2ccccc2)SC1=S (stereo unspecified)	inconclusive: -41%
O=C(NCc1n[nH]c(=S)n1-c1ccccc1)c1ccc(S(=O)(=O)N2CCCCC2)cc1	inconclusive: -42.4%
COc1ccc(CCNC(=O)Cn2cnc3sc(C)c(-c4ccc(F)cc4)c3c2=O)cc1OC	inconclusive: -42.7%
COc1ccc(NS(=O)(=O)c2c(F)cc(F)c(Cl)c2F)cc1S(=O)(=O)N1CCCCC1	inactive: -26.3%
O=C(c1cccc(C(F)(F)F)c1)C1CCCN(Cc2ccc(OCCO)cc2)C1 (stereo unspecified)	inconclusive: -58.9%

Copied from the listing for reference:
Compound	activity change, negative = inhibition
Cc1cccc(NC(=O)CCN2CCN(c3ccccc3F)CC2)c1	inactive: 23%
O=C(Nc1cccc(S(=O)(=O)NC2=NCCCCC2)c1)c1cc(-c2ccccc2)nc2ccccc12	inactive: -10.4%
